According to patent publication CN111303285A:
No constants are given. Whether binding was seen depends on the method and setting. Some entries that bind do so weakly or less than the wild type. For part of these data: Tags and fused reporters may be left off the sequences shown.

Legend:
OX40-His融合蛋白 = target: T1, OX40-His融合蛋白 (UniProt P43489); assay: ELISA, fusion protein coated at 1μg/ml, antibody at 1μg/mL
T1 sequence (looked up): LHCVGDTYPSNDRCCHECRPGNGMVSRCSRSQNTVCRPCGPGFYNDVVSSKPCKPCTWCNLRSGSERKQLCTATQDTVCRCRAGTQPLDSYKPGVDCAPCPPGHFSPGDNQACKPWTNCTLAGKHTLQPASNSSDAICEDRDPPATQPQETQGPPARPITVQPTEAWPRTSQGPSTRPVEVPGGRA

OX40-rFc融合蛋白 = target: T2, OX40-rFc融合蛋白 (UniProt P43489); assay: as above
T2 sequence (looked up): T1 sequence (looked up)

[1] = target: OX40 expressed on cells (OX40-293F细胞; 19B3 HEK293 NF-κB报告细胞系) (UniProt P43489); assay: Flow cytometry (FACS) on transiently transfected OX40-293F cells; antibody in 3-fold dilutions from 10μg/mL; anti-mouse-FITC detection

Measured: binding

B1: 本发明抗OX40抗体 (murine monoclonal anti-OX40 antibody of the invention) (antibody, V domains shown)
VH: EVQLQQSGAELVKPGASVKLSCKASGYTFTNYWIHWVKQRPGQGLEWIGEINPSNGRTNSNEKFKNKATLTVDKSSSTAYMQLSSLTSEDSAVYYCAEAVPYYFVYWGQGTTLTVSS
VL: DIVMTQAASSLSASLGDRVTISCRASQDINNYLNWYQQKPDGTVKLLIYFTSGLRSGVPSRFSGSGSGTDYSLTISNLEQEDIATYFCQQGNTLPLTFGAGTKLELN
binds: OX40-His融合蛋白 | OX40-rFc融合蛋白 | [1]
